Residue numbers refer to the chain shown, from its start. A weaker result is weaker than the reference pair of the same experiment. Protein sequences can lack the tags named with them. For some assays here: The exact form of at least one protein or probe is not confirmed. For some assays here: At least one verdict rests on a figure or table, not on a statement of the authors.
Tests used:
[1] = target: T1, ARID4A TD121 L50E (Homo sapiens) (UniProt P29374); assay: EMSA; details: weaker than wild-type ARID4A TD121; 50 mM Tris-HCl pH 7.6, 50 mM NaCl (buffer A); EMSA 4 C, 12 uM DNA, 8% native gel in TBE; recombinant protein; residues …
T1 sequence (looked up): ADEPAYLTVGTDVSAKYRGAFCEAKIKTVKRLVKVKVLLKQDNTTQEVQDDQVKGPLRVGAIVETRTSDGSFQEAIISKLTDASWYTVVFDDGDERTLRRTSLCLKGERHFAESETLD

[2] = target: T2, ARID4B TD151 G143A (Homo sapiens) (UniProt Q4LE39); assay: ITC; details: Kd ratio AT18/GC18 ~1.1-1.3, Kd only in figure; 50 mM Tris-HCl pH 7.6, 50 mM NaCl (buffer A); ITC 25 C; recombinant protein; residues 1-151
T2 sequence (looked up): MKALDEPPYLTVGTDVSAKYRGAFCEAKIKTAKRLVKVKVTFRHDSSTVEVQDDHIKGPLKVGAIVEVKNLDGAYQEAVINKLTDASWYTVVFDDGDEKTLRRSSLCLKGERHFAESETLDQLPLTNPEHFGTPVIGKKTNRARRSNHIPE

[3] = target: T3, ARID4B TD151 K139A (Homo sapiens) (UniProt Q4LE39); assay: ITC; details: Kd ratio AT18/GC18 ~0.4-0.5, Kd only in figure; 50 mM Tris-HCl pH 7.6, 50 mM NaCl (buffer A); ITC 25 C; recombinant protein; residues 1-151
T3 sequence (looked up): T2 sequence (looked up) with K139A, A143G

[4] = target: T4, ARID4B TD151 R142A (Homo sapiens) (UniProt Q4LE39); assay: ITC; details: Kd ratio AT18/GC18 ~1.1-1.3, Kd only in figure; 50 mM Tris-HCl pH 7.6, 50 mM NaCl (buffer A); ITC 25 C; recombinant protein; residues 1-151
T4 sequence (looked up): T2 sequence (looked up) with R142A, A143G

[5] = target: T5, ARID4B TD151 R144A (Homo sapiens) (UniProt Q4LE39); assay: ITC; details: Kd ratio AT18/GC18 ~1.1-1.3, Kd only in figure; 50 mM Tris-HCl pH 7.6, 50 mM NaCl (buffer A); ITC 25 C; recombinant protein; residues 1-151
T5 sequence (looked up): T2 sequence (looked up) with A143G, R144A

[6] = target: T6, ARID4B TD151 R145A (Homo sapiens) (UniProt Q4LE39); assay: ITC; details: Kd ratio AT18/GC18 ~0.4-0.5, Kd only in figure; 50 mM Tris-HCl pH 7.6, 50 mM NaCl (buffer A); ITC 25 C; recombinant protein; residues 1-151
T6 sequence (looked up): T2 sequence (looked up) with A143G, R145A

Measured: binding result

CTCAGGTCAAAGGTCACG / TCGTGACCTTTGACCTGA [dsDNA1]
binds more weakly: [1]

CGCAATTATATATTACGG (double strand) [dsAT18]
not listed: [1]
binds more weakly: all other assays above

CGCACCGATCCGTGACGG (double strand) [dsGC18]
not listed: [1]
binds more weakly: all other assays above

From PMC8038949, “Structural basis for the DNA-binding activity of human ARID4B Tudor domain”
